In this data set the test system is PLP and MBP RNA expression. Put plainly: Myelin gene expression (PLP, MBP RNA) in primary oligodendrocytes, quantitative RT-PCR. The class given is cell-based, mouse.

These results are taken from patent US11813264B2, “PAR1 modulation to alter myelination” (Mayo Foundation for Medical Education and Research, priority 2014, dated 2023).

Turning to “Klk6: Recombinant murine kallikrein-related peptidase 6 expressed using a baculovirus system”, the “GAPDH RNA expression” value (PAR1+/+ cells treated with Klk6) was 1.4×10^6±4.4×10^4 copies/0.5 μg RNA and the “GAPDH RNA expression” value (PAR1-/- cells treated with Klk6) is recorded as 1.4×10^6±6.5×10^3 copies/0.5 μg RNA.
